This assay concerns the target T1, endogenous C9orf72 (mouse brain) (mouse (endogenous in mouse brain)) (UniProt Q6DFW0).
T1 sequence: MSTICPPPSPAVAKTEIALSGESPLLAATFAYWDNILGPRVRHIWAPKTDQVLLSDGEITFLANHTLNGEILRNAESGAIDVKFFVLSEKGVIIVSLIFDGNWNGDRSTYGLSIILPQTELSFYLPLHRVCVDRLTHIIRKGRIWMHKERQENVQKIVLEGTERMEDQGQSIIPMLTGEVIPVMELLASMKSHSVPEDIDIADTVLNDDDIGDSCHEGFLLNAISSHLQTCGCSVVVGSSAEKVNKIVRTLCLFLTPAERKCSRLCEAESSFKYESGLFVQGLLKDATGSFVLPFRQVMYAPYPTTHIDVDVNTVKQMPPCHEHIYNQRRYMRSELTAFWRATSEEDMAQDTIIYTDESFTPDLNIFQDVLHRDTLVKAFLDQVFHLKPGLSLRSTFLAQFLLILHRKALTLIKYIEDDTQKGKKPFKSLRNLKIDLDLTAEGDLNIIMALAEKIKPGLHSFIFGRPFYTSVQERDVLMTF
In words: co-IP; endogenous C9orf72 precipitated from adult mouse brain extract in RIPA buffer with mAb 1C1 overnight at 4 °C, then A/G magnetic beads for 3 h at 4 °C; control IgG alone; immunoblot against RAB3.

No constants are given. Whether binding was seen depends on the method and setting. In cells and extracts the contact can be indirect. A result given as binding can be weak or reduced; the word gives no strength.

Consider endogenous RAB3 (mouse brain), for which the binding entry is listed as “binds”.

(Values after article PMC6091050.)
